Measured values from the supplement of paper PMC10849652.
Some of the results follow.

By UniProt entry, the sequences of proteins in these tests, tags left out. Where a name states a change or a piece, a line headed by the entry shows the natural chain unless it says otherwise.
UniProt P49247: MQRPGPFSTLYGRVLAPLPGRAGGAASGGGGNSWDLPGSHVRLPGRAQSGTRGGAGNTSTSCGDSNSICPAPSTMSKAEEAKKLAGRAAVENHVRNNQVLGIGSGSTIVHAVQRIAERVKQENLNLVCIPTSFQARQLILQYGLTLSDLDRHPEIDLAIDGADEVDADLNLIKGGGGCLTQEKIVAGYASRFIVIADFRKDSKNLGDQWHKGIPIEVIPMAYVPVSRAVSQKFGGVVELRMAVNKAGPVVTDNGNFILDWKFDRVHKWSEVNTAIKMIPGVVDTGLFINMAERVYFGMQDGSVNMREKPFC
UniProt Q99942: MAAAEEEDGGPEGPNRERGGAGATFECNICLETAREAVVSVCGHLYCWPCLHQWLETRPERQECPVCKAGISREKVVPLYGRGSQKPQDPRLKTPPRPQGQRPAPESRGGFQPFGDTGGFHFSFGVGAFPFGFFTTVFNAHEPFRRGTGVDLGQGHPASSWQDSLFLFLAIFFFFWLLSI
UniProt P23921: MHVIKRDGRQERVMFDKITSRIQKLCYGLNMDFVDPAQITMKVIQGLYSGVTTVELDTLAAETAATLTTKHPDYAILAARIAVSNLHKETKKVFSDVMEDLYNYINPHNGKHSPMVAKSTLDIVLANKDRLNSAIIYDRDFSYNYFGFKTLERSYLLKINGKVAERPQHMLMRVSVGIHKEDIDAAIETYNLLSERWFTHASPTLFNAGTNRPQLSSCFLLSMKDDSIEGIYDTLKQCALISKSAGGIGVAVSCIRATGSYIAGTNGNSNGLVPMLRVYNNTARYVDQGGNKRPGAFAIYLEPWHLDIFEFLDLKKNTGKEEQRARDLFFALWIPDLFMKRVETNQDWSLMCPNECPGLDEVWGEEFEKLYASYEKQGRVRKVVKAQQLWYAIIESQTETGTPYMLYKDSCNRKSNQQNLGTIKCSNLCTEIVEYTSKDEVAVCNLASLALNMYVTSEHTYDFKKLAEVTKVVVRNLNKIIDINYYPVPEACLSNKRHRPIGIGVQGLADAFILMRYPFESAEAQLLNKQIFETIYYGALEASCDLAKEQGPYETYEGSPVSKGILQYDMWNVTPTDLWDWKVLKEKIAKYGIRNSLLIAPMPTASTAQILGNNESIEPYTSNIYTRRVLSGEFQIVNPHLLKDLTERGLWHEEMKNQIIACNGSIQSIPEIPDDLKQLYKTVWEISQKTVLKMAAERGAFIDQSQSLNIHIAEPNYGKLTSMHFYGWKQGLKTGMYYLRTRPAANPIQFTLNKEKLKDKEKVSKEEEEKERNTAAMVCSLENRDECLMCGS
UniProt P78346: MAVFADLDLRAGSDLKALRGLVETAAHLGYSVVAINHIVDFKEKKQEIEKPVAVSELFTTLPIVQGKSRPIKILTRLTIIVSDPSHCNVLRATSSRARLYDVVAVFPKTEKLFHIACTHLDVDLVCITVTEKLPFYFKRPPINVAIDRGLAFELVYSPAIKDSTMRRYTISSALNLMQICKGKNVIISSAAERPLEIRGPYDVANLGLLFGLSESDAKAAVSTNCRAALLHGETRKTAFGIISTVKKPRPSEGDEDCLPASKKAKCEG
UniProt Q9NYV6: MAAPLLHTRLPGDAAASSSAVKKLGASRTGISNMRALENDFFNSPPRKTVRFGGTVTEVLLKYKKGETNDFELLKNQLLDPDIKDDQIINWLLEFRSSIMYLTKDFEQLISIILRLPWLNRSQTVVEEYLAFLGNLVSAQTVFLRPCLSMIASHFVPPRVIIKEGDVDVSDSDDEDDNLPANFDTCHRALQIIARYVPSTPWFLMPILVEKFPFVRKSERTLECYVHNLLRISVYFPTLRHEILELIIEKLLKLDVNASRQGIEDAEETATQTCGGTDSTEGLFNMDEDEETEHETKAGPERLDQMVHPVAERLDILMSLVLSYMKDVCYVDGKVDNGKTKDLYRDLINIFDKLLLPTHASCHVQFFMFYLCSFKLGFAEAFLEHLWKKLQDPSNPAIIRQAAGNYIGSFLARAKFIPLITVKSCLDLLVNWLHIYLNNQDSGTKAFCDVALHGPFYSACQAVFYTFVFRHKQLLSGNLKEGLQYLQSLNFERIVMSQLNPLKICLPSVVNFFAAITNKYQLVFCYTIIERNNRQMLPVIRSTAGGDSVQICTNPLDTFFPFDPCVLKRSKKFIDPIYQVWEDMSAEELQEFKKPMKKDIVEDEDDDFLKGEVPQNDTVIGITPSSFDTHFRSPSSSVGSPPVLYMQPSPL
UniProt Q96BH1: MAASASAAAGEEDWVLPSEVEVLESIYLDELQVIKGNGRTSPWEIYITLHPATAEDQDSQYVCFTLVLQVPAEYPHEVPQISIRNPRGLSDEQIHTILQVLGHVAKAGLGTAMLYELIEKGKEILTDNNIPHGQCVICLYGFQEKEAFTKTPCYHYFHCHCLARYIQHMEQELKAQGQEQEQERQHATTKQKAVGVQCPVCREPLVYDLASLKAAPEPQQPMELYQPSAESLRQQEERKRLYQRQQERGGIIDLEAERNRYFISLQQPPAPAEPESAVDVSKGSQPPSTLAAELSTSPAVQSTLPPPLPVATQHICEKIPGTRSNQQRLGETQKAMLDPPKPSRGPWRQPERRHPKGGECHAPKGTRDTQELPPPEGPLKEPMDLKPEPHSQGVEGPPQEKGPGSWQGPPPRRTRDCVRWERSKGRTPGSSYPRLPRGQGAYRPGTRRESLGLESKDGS
UniProt Q92901: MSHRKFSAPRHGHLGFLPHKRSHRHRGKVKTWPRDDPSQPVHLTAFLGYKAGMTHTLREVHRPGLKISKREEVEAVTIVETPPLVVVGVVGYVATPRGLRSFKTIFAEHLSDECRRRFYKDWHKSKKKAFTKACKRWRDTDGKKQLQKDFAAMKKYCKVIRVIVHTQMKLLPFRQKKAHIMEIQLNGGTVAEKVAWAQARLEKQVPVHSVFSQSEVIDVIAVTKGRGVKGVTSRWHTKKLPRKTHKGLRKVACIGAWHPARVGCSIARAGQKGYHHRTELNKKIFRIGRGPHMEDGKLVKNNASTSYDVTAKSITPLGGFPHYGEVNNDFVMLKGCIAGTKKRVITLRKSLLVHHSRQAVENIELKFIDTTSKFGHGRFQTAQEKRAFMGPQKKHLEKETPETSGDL

These targets were tested with c1cn2cc(-c3ccc4cn[nH]c4c3)nc(Nc3ccc(N4CCOCC4)cc3)c2n1 [entospletinib] (assay: log2 fold change, soluble protein after heating vs DMSO (PISA); higher = thermal stabilisation; K562 cells, 10 uM, 30 min; active = over 0.2 and 3.5 SD of the protein, either way, in both replicates (recomputed)).
How it was run: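 K562 cells at 2×10^6 cells/mL were given 10 μM compound for 30 min. Aliquots then went through 3 min of heating across 48°C-58°C, were pooled, and were extracted in PBS with 0.5% NP-40 at 4°C, and the supernatant after 21,000xg for 90 min was quantified by TMTpro 16plex LC-MS/MS with channel sums equalised. Thermal stability relative to control samples, from duplicates, is given as log2 fold change.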

log2 fold change, inactive:
RPS7 (UniProt P62081) 0.118, RPIA (UniProt P49247) -0.012, RNF5 (UniProt Q99942) -0.033, RRM1 (UniProt P23921) -0.003, RPP30 isoform 2 (UniProt P78346) 0.08, RRN3 (UniProt Q9NYV6) -0.118, RNF25 (UniProt Q96BH1) 0.024, RPS10 (UniProt P46783) 0.077, RPL3L (UniProt Q92901) 0.104, RPS27L (UniProt Q71UM5) 0.102
